Measurements from the supplement of paper PMC4604168 (melanoma cell lines).
The other results are listed elsewhere or left out. Many values rest on one well or one pass, so single values are uncertain.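 The apoptosis fraction was the count of cleaved-PARP antibody-stained nuclei relative to all DNA-stained nuclei, imaged in 1,536-well plates. Screening doses were set so most cells survived, and baseline and induced cleaved-PARP levels vary greatly across cell lines.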

Test system: SkMel30
Experiment: cleaved PARP positive nuclei fraction relative to DMSO control; melanoma cells; higher = more apoptosis
Settings: library dose: low library concentration; 72 h

SMILES	cleaved PARP positive nuclei fraction
O=C(Nc1ccccc1)c1cc([N+](=O)[O-])ccc1Cl + O=S(=O)(c1ccccc1)N(CC(F)(F)F)c1ccc(C(O)(C(F)(F)F)C(F)(F)F)cc1 [T0901317] (first compound 2 µM, partner dose 1.4 µM)	117%
CN(C)S(=O)(=O)c1ccc2c(c1)/C(=C/c1cc3c([nH]1)CCCC3)C(=O)N2 + NCC(=O)Nc1ccc(-n2nc(C(F)(F)F)cc2-c2ccc3c(ccc4ccccc43)c2)cc1 [OSU03012] (first compound 0.4 µM, partner dose 1 µM)	259%
N#Cc1c(O)c2c(-c3ccc(-c4ccccc4O)cc3)csc2[nH]c1=O + O=S(=O)(c1ccccc1)N(CC(F)(F)F)c1ccc(C(O)(C(F)(F)F)C(F)(F)F)cc1 [T0901317] (first compound 2 µM, partner dose 1.4 µM)	28.2%
NCC(=O)Nc1ccc(-n2nc(C(F)(F)F)cc2-c2ccc3c(ccc4ccccc43)c2)cc1 + COc1cc2c(Oc3ccc4[nH]c(C)cc4c3F)ncnc2cc1OCCCN1CCCC1 [cediranib] (first compound 1 µM, partner dose 0.4 µM)	307%
CN(NC(=O)CC(=O)NN(C)C(=S)c1ccccc1)C(=S)c1ccccc1 + c1cc(-c2cnn3cc(-c4ccc(OCCN5CCCCC5)cc4)cnc23)ccn1 [Dorsomorphin] (first compound 0.006 µM, partner dose 0.4 µM)	108%
COc1cc2c(Oc3ccc4[nH]c(C)cc4c3F)ncnc2cc1OCCCN1CCCC1 [cediranib] + c1cc(-c2cnn3cc(-c4ccc(OCCN5CCCCC5)cc4)cnc23)ccn1 [Dorsomorphin] (first compound 0.4 µM, partner dose 0.4 µM)	201%
CN(NC(=O)CC(=O)NN(C)C(=S)c1ccccc1)C(=S)c1ccccc1 + N#Cc1c(O)c2c(-c3ccc(-c4ccccc4O)cc3)csc2[nH]c1=O [A769662] (first compound 0.006 µM, partner dose 2 µM)	40.7%
O=C(O)c1ccc(-c2c[nH]c3ncc(-c4ccccc4)cc23)cc1C1CCCC1 + CN(NC(=O)CC(=O)NN(C)C(=S)c1ccccc1)C(=S)c1ccccc1 [STA4783] (first compound 0.16 µM, partner dose 0.006 µM)	75.7%
CN(C)S(=O)(=O)c1ccc2c(c1)/C(=C/c1cc3c([nH]1)CCCC3)C(=O)N2 + CC(C)CCN1c2nc(Nc3cc(F)c(O)c(F)c3)ncc2N(C)C(=O)C1C [BID1870] (first compound 0.4 µM, partner dose 0.2 µM)	32.1%
CN(NC(=O)CC(=O)NN(C)C(=S)c1ccccc1)C(=S)c1ccccc1 + COc1cc2c(Oc3ccc4[nH]c(C)cc4c3F)ncnc2cc1OCCCN1CCCC1 [cediranib] (first compound 0.006 µM, partner dose 0.4 µM)	73.9%
COC(=O)c1sccc1S(=O)(=O)Nc1ccc(Nc2ccccc2)cc1OC + COc1ccc(-c2ccc3c(N4CCOCC4)nc(N4C[C@@H](C)O[C@@H](C)C4)nc3n2)cc1CO [KU0063794] (first compound 1 µM, partner dose 0.02 µM)	27.5%
COc1ccc2c(c1)CCC1C2CCC2(C)C(NCCCCCCN3C(=O)C=CC3=O)CCC12 (stereo not given) + COc1cc(N2CCC(N3CCN(C)CC3)CC2)ccc1Nc1ncc(Cl)c(Nc2ccccc2S(=O)(=O)C(C)C)n1 [NVP-TAE684] (first compound 0.4 µM, partner dose 0.08 µM)	112%
O=C(O)C(=O)Nc1sc2c(c1C(=O)O)CCNC2 + COc1cc(N2CCC(N3CCN(C)CC3)CC2)ccc1Nc1ncc(Cl)c(Nc2ccccc2S(=O)(=O)C(C)C)n1 [NVP-TAE684] (first compound 1.66667 µM, partner dose 0.08 µM)	18.9%
CCCCCCCCCCCC1=C(O)C(=O)C=C(O)C1=O [Embelin] + O=c1cc(-c2cccc3c2Sc2ccccc2S3)oc(N2CCOCC2)c1 [KU55933] (first compound 1.2 µM, partner dose 1 µM)	27.3%
COc1cc2ncnc(Nc3ccc(Oc4ccccc4)cc3)c2cc1OC + CC(C)CCN1c2nc(Nc3cc(F)c(O)c(F)c3)ncc2N(C)C(=O)C1C [BID1870] (first compound 2 µM, partner dose 0.2 µM)	46.3%

Some of the entries so far, with bars between the fields:
SMILES | cleaved PARP positive nuclei fraction
CN(C)S(=O)(=O)c1ccc2c(c1)/C(=C/c1cc3c([nH]1)CCCC3)C(=O)N2 + NCC(=O)Nc1ccc(-n2nc(C(F)(F)F)cc2-c2ccc3c(ccc4ccccc43)c2)cc1 [OSU03012] (first compound 0.4 µM, partner dose 1 µM) | 259%
CN(NC(=O)CC(=O)NN(C)C(=S)c1ccccc1)C(=S)c1ccccc1 + c1cc(-c2cnn3cc(-c4ccc(OCCN5CCCCC5)cc4)cnc23)ccn1 [Dorsomorphin] (first compound 0.006 µM, partner dose 0.4 µM) | 108%
O=C(O)C(=O)Nc1sc2c(c1C(=O)O)CCNC2 + COc1cc(N2CCC(N3CCN(C)CC3)CC2)ccc1Nc1ncc(Cl)c(Nc2ccccc2S(=O)(=O)C(C)C)n1 [NVP-TAE684] (first compound 1.66667 µM, partner dose 0.08 µM) | 18.9%
